Source: PubChem BioAssay AID652272 (Drosophila RNAi Screening Center, 2013)

Aim: 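Finding fly genes that regulate Hedgehog signal transduction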 (primary screen)
Cells: Drosophila clone 8 (Cl8) cells
Reagent: long dsRNA against Drosophila genes
Measurement: 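Plate reader light from a firefly reporter under a ptc promoter fragment that responds to Hedgehog, with Renilla light as transfection reference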
Direction: firefly Hh reporter signal: higher = more ptc reporter light; Renilla reference signal: higher = more Renilla control light
Rule for the call: 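Called a hit if the two-replicate mean z-score lies below -2 or above +3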
Meaning of the calls: active = hit: reporter lowered or raised; inactive = not a hit
The deposit covers about 21,000 reagents; this is an unselected part of those with a known target gene and a result. Over the whole deposit, 503 (2.4%) are marked active. 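Raw plate light values, not normalised; calls rest on replicate z-scores that were not deposited; hits include reporter decreases as well as increases.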 Reagents against one gene are numbered here. A plus sign joins genes that one reagent is predicted to hit. The record does not give: the amount of reagent, the time to read-out.

Gene | reagent no. | firefly Hh reporter signal, replicate 1 | firefly Hh reporter signal, replicate 2 | firefly Hh reporter signal, replicate 3 | Renilla reference signal, replicate 1 | Renilla reference signal, replicate 2 | call
casp | 1 | 1.37e5 | 81632 | – | 5591 | 3699 | inactive
CG13484 | 1 | 61318 | – | – | 1684 | 2167 | inactive
topi | 1 | 72768 | 98119 | – | 1865 | 2945 | inactive
CG17283 | 1 | 54282 | 92440 | – | 1456 | 2832 | inactive
CG3434 | 1 | 67597 | 35604 | – | 2949 | 1307 | inactive
CG13358 | 1 | 91968 | 2.42e5 | – | 3225 | 7456 | inactive
CG11076 | 1 | 59077 | 1.35e5 | – | 1625 | 6013 | inactive
CG17154 | 1 | 24330 | 53389 | 45810 | 5197 | 3638 | inactive
CG11593 | 1 | 93543 | 40834 | – | 3275 | 2668 | inactive
Ostgamma | 1 | 58453 | 37749 | – | 2128 | 1712 | inactive
CG13300 | 1 | 18592 | 25834 | – | 2684 | 2032 | inactive
CG10479 | 1 | 71027 | 44844 | – | 3873 | 2506 | inactive
CG43689 | 1 | 1.26e5 | 2.50e5 | – | 3765 | 8265 | inactive
CG43689 | 2 | 36211 | 30899 | – | 1833 | 1856 | inactive
CG14631 | 1 | 97309 | 2.99e5 | – | 2649 | 11851 | inactive
CG14631 | 2 | 64258 | 2.67e5 | – | 1803 | 10876 | inactive
CG12547 | 1 | 60664 | 46184 | – | 2235 | 3085 | inactive
Vps15 | 1 | 1.01e5 | 80317 | – | 4477 | 3845 | inactive
Pkd2 | 1 | 73884 | 58169 | – | 1466 | 4508 | inactive
CG3568 | 1 | 80951 | 2.25e5 | – | 3320 | 7873 | inactive
rig | 1 | 81024 | 76006 | – | 3733 | 3248 | inactive
rig | 2 | 88229 | 42067 | – | 2869 | 3447 | inactive
Sfxn2 | 1 | 1.01e5 | 1.03e5 | – | 3216 | 2960 | inactive
lqf | 1 | 1.56e5 | 68087 | – | 5288 | 2589 | inactive
Irc | 1 | 91670 | 73788 | – | 3920 | 3072 | inactive

Ordered by “Renilla reference signal, replicate 1” (high to low): some entries from above.
Gene | reagent no. | firefly Hh reporter signal, replicate 1 | firefly Hh reporter signal, replicate 2 | firefly Hh reporter signal, replicate 3 | Renilla reference signal, replicate 1 | Renilla reference signal, replicate 2 | call
Vps15 | 1 | 1.01e5 | 80317 | – | 4477 | 3845 | inactive
rig | 1 | 81024 | 76006 | – | 3733 | 3248 | inactive
CG3568 | 1 | 80951 | 2.25e5 | – | 3320 | 7873 | inactive
rig | 2 | 88229 | 42067 | – | 2869 | 3447 | inactive
CG12547 | 1 | 60664 | 46184 | – | 2235 | 3085 | inactive
Pkd2 | 1 | 73884 | 58169 | – | 1466 | 4508 | inactive

Continued:
Gene | reagent no. | firefly Hh reporter signal, replicate 1 | firefly Hh reporter signal, replicate 2 | firefly Hh reporter signal, replicate 3 | Renilla reference signal, replicate 1 | Renilla reference signal, replicate 2 | call
CG2217 + CG42740 | 1 | 1.02e5 | 76071 | – | 2396 | 2195 | inactive
CG31100 | 1 | 95521 | 1.05e5 | – | 3675 | 3105 | inactive
CG31100 | 2 | 94506 | 1.08e5 | – | 3667 | 3325 | inactive
Dph4 | 1 | 61441 | 90380 | – | 2320 | 2589 | inactive
Arl5 | 1 | 90737 | 65523 | – | 4033 | 2556 | inactive
CG32457 | 1 | 6.91e5 | 3.57e5 | 1.52e5 | 4843 | 7873 | inactive
Tbcd | 1 | 93808 | 71933 | – | 4166 | 2460 | inactive
CG3819 | 1 | 83968 | 1.28e5 | – | 2788 | 3510 | inactive
CG32832 | 1 | 1.05e5 | 1.94e5 | – | 3260 | 10083 | inactive
Mst33A | 1 | 1.16e5 | 83959 | – | 3378 | 6796 | inactive
nAChRalpha2 | 1 | 1.13e5 | 1.04e5 | – | 4375 | 3668 | inactive
CG1409 | 1 | 65958 | 2.02e5 | – | 2550 | 8354 | inactive
Idgf5 | 1 | 96170 | 60832 | – | 4507 | 2582 | inactive
Rif1 | 1 | 94256 | 2.41e5 | – | 3782 | 10865 | inactive
Mtch | 1 | 95031 | 68112 | – | 4333 | 2832 | inactive
Fuca | 1 | 90823 | 58426 | 51713 | 6746 | 3846 | inactive
zetaTry | 1 | 97444 | 53027 | – | 2348 | 3952 | inactive
CG9628 | 1 | 1.00e5 | 1.21e5 | – | 4056 | 4312 | inactive
TH1 | 1 | 53190 | 44773 | – | 1220 | 717 | inactive
CG11403 | 1 | 94080 | 73729 | – | 1264 | 2544 | inactive
Jarid2 | 1 | 1.04e5 | 44869 | – | 4963 | 2170 | inactive
lace | 1 | 1.07e5 | 89191 | – | 4296 | 3523 | inactive
CG1492 | 1 | 1.58e5 | 58028 | – | 3538 | 901 | active
lncRNA:sphinx + ATPsynF | 1 | 3.64e5 | 1.35e5 | – | 14432 | 1571 | inactive
kmr | 1 | 54659 | 3.20e5 | – | 11221 | 6845 | inactive
kmr | 2 | 1.14e5 | 82692 | – | 4569 | 2711 | inactive
kmr | 3 | 1.12e5 | 84392 | – | 4007 | 1904 | inactive
kmr | 4 | 1.47e5 | 89360 | – | 5376 | 3354 | inactive
CG13581 | 1 | 74902 | 61127 | – | 1517 | 5494 | inactive
RpL27 | 1 | 2.09e5 | 43056 | – | 16203 | 2871 | active
CG42246 | 1 | 4.29e5 | 1.16e5 | – | 24362 | 3069 | inactive
Cht2 | 1 | 1.24e5 | 79939 | – | 5570 | 3440 | inactive
